## Primary screen of a compound library

By UniProt entry, the sequences of proteins in these tests, tags left out. Residues count along the entry.
UniProt Q4DA54, 1-478: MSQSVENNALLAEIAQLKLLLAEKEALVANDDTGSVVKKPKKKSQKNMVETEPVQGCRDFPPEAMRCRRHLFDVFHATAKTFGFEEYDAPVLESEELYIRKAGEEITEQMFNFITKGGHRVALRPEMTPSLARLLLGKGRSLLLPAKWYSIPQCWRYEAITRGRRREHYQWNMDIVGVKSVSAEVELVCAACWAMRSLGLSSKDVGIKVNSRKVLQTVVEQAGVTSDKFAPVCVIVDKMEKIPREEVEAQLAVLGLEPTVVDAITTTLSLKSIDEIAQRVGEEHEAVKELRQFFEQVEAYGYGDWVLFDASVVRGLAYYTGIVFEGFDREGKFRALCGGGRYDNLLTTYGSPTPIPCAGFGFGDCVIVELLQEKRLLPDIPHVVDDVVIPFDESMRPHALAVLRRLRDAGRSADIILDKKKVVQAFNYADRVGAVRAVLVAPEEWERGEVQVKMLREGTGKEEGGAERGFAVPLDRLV
UniProt P9WPC5, whole entry: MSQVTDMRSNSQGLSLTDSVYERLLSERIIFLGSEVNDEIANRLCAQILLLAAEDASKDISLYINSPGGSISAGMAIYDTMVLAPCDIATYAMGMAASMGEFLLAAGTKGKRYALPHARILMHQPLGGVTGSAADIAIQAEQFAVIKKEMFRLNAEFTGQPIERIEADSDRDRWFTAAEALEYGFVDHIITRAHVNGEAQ
UniProt P9WPC3, whole entry partner: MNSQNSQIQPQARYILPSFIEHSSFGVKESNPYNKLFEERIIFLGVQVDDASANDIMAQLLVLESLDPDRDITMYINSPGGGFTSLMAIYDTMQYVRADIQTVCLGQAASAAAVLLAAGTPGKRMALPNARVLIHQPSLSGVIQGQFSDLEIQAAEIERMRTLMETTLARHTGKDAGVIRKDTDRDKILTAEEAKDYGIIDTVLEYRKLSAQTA

Data taken from ChEMBL document CHEMBL3988442, “University of Dundee, Small-Polar-MMV Screening Library” (2021).

TcHisRS: 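Histidine-tRNA ligase, Trypanosoma cruzi CL Brener (UniProt Q4DA54). Enzyme assay of histidyl-tRNA synthetase; the read-out is not stated. Tested at 30 µM. Direction is inferred from retests: higher values go with stronger inhibition. About 69,000 compounds were tested under these conditions; 0.045% (about 31) showed 50% or more at least once.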
ClpP1P2: 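Protease assay of ClpP1P2, read by the AMC dye that it sets free. Target: ClpP1P2, Mycobacterium tuberculosis (UniProt P9WPC5 and UniProt P9WPC3). Tested at 50 µM. Direction is inferred from only a few compounds that gave an IC50; most scored high, so higher reads as stronger inhibition. Most other retested compounds had strongly negative values. Of about 69,000 compounds tested this way, about 10 (0.015%) reached 50% or more in at least one test.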

Each number is a percent effect as filed.
How 0% and 100% were set is not recorded. Most values in the screen are low, and negative values occur.
The compounds are a random part of those screened.

Compound | TcHisRS | ClpP1P2
Cc1cc(CN(C)C2CCCN(c3cccnn3)C2)no1 (stereo not shown) | 15.52 | -8.588
COCCN1CCC(NC(=O)C/C=C/c2ccc(C(C)C)cc2)CC1 | 8.642 | -2.504
COCc1cc(N(C)CCc2c(C)n[nH]c2C)ncn1 | 5.263 | 2.296
CC(C)c1nccn1Cc1cc(C(=O)NCC(C)n2ccnc2)n[nH]1 (stereo not shown) | 2.41 | -5.945
COCc1cc(CC2(NC3CCN(C)CC3)COC2)no1 | -0.4975 | 7.141
O=C(C(CNCc1ccccn1)c1ccccc1)N1CCOCC1 (stereo not shown) | 2.242 | -7.899
COCC(=O)NC1(c2cccc(C(F)(F)F)c2)CCC1 | 1.754 | -3.714
O=C(CC1CCCCC1)N1CCN(C(=O)NCc2ccccn2)CC1 | 5.66 | 4.578
CC(Nc1ccc(C#N)cc1F)c1cccc(S(N)(=O)=O)c1 (stereo not shown) | 11.67 | 2.774
COc1ccc(CN2C[C@H]3CCC[C@@H](CN(C)C)[C@H]3C2)cn1 | 9.091 | -1.417
O=S(=O)(c1ccc(C(F)(F)F)cc1)N1CCC(OCc2ccccn2)C1 (stereo not shown) | 6.579 | 4.521
CSCC(CCO)NC(=O)Nc1cc(C)ccc1C (stereo not shown) | 4.132 | -12.48
O=C(NCCC(=O)N1CCCc2ccccc21)c1c(O)cc(F)cc1F | -0.3774 | 4.284
CCCN1CCN(Cc2cc(Cl)cc(Cl)c2)[C@H]2CS(=O)(=O)C[C@H]21 | 5.155 | -22.52
Cc1cc(-c2cnc(N3CCNC(=O)C3)nc2-c2sccc2C)on1 | -1.498 | -6.193
O=C1CO[C@H](c2ccc(NS(=O)(=O)Cc3ccccc3)cc2)[C@@H](CO)N1 | 0.4975 | -0.01379
Cc1n[nH]c(C)c1CCc1n[nH]c(=O)n1Cc1cccs1 | 2.646 | 15.62
Cc1ncsc1C(=O)N1CC(C)Sc2ccccc21 (stereo not shown) | 0.8403 | -2.387
CCCn1nc2c(cc1=O)CN(Cc1cc(C)no1)CC2 | 2.174 | -3.332
Cc1cc(C)c2[nH]c(C(=O)NCCN3CCNC3=O)c(C)c2c1 | 0.8929 | -9.542
NS(=O)(=O)CCNC(=O)c1ccc(OCc2ccccc2)nc1 | 1.724 | -10.75
Cc1cc(C)n(C2CCCN(C(=O)Cc3csc(C)n3)C2)n1 (stereo not shown) | 3.759 | 0.2301
Cc1ccc(S(=O)(=O)NCCNC(=O)c2ccoc2)cc1F | -2.075 | -2.941
Cc1nc(CN(C)C2CCCN(c3cccnn3)C2)no1 (stereo not shown) | 4.58 | 16.08
CC(C)C1C(=O)NCCN1C(=O)CCCc1nc(C(C)(C)C)no1 (stereo not shown) | 3.704 | 8.412
O=C(CN1CCN(CC(O)C2CC2)CC1)NCc1ccccc1Cl (stereo not shown) | 10 | -2.058
Cc1noc([C@@H]2C[C@H]3OCC[C@H]3N(C(C)C)C2)n1 | 11.06 | -6.897
CCC1=NOC(CNCc2cnc(-c3ccccc3C)s2)C1 (stereo not shown) | 2.273 | 3.374
NC(=O)c1cc(C2CC2)nc2ccc(F)cc12 | -3.982 | -14.13
CN(Cc1ccco1)[C@@H]1CN(CC2CCOCC2)[C@@H]2CCCO[C@H]12 | 8.163 | 3.716
O=C(C[S+]([O-])c1ccc(F)c(F)c1)NCc1cc(F)cc(F)c1 (stereo not shown) | 4.762 | -5.393
O=C(CNC(Cn1cccn1)c1ccccc1)Nc1cnccn1 (stereo not shown) | 7.463 | 6.655
O=C1CCCCN1CCCNCc1cnc(C2CCC2)s1 | 4.082 | -18.61
Cc1oc2c(c1C(=O)N1C[C@H](O)[C@]3(CCCO3)C1)CCCC2 | 10.61 | 0.6873
COCC1CN(CC2CC2)Cc2ncn(CC3CC3)c21 (stereo not shown) | 5.607 | -10.8
Fc1ccc([C@@H]2COC[C@H]2NCc2cccc(F)c2)cc1 | 6.202 | -6.667
COc1cc(N2CCc3ncnc(-c4ccoc4)c3CC2)ncn1 | 4.598 | 2.975
Cc1sc2ncnc(N3CCCC3Cn3cccn3)c2c1C (stereo not shown) | 8.04 | -0.9348
Cn1cnc(S(=O)(=O)N2C[C@H](OCC3CC3)[C@H]3OCCC[C@H]32)c1 | 3.226 | -0.4444
Cn1cncc1CN1CCC2(CC1)CCN2c1ncccn1 | 5.882 | -6.201
CCc1noc(C2CCCCN2C(=O)c2ccc(C)o2)n1 (stereo not shown) | 2.609 | 11.75
O=C(NCc1cccnc1)[C@@H]1C[C@H]2[C@H](CCN2c2ncccn2)O1 | 1.02 | -4.444
CCS(=O)(=O)N1Cc2ncn(C)c2C(COCC2CCOCC2)C1 (stereo not shown) | 6.897 | 2.017
COCC1CCN(c2nc(C(C)(C)C)nc3c2cnn3C)C1 (stereo not shown) | 12.35 | -3.103
CSCCC(=O)N1CCc2c(ncnc2N2CCOCC2)C1 | 5.291 | -8.948
Cc1nc(C)n(CCNS(=O)(=O)NCc2ccccc2)n1 | 0 | -12.05
Cc1cccc(CN2C[C@@H]3CCCO[C@@H]3[C@H](NS(C)(=O)=O)C2)n1 | 0.5405 | 11.76
C[C@@H]1CN(C2CCOC2)C[C@]12CCN(Cc1cccnc1)C2=O (stereo partly shown) | 8.247 | -2.012
COc1cccc2c1OCC(CNc1cc(N)nc(SC)n1)C2 (stereo not shown) | 9.877 | -5.723
Cc1cc(CNC(=O)c2ccc(C(C)N3CCCCC3)o2)[nH]n1 (stereo not shown) | 6.557 | -4.388
CCOCC(=O)Nc1ccc(N2CCSCC2)cc1C | 3.448 | -1.421
c1cc(CNCC2Cn3nncc3CO2)cs1 (stereo not shown) | 3.448 | 5.26
Cc1ncsc1C(=O)NC1CCN(c2ncccc2C#N)CC1 | 12.5 | -5.389
Cc1ccc(C(=O)N2CCN(CCC(C)(C)C)CC2)c(=O)[nH]1 | 3.053 | 6.255
COCCN(CCOC)C(=O)Nc1cc(C(F)(F)F)c[nH]c1=O | 5.202 | -6.994
Cc1noc(C)c1CN1C[C@@H]2COC[C@H](C(=O)N3CCCO3)[C@@H]2C1 | 4.902 | 5.92
CCn1nnc(NCc2ccc(-c3ccc(Br)cc3)o2)n1 | -2.591 | 3.455
CCc1cnc(N)nc1NCc1ccc(OC)c(OC)c1 | 1.622 | -18.5
c1cncc(-c2noc(C3CN(Cc4cccs4)C3)n2)c1 | 3.093 | -4.536
CCc1ccc2c(c1)C(CCNC(=O)Cc1cccc(F)c1)C(=O)N2 (stereo not shown) | 7.263 | -11.5
Cc1c[nH]c(C2CCCN(C(=O)CCc3c(C)n[nH]c3C)C2)n1 (stereo not shown) | 4.215 | -26.57
COC(=O)c1cccc(NS(=O)(=O)c2cnc(NC(C)=O)s2)c1 | 4.918 | -0.921
Cc1cc(C)nc(NCc2cc3n(n2)CCCN(C(=O)C2CCC2)C3)n1 | 6.03 | -20.22
CC(=O)c1c(C)nn(S(=O)(=O)c2ccc(C)c(C)c2)c1C | 3.509 | -1.548
Cc1nc(N2CCCN(c3ncccn3)CC2)c2cnn(C)c2n1 | 8.8 | -8.347
Cc1nc(C)c(C(=O)NCCNC(=O)Cc2ccc(F)cc2)s1 | 0.5848 | 4.711
COCCN(C)CCN1CC2(CCN(C3CCCOC3)CC2)OC1=O (stereo not shown) | -0.8368 | 12.71
Cc1nc(C)c(C(=O)NCCNC(=O)Cc2cccc(F)c2)s1 | 0.3831 | 4.861
NCC1CCN(c2nc(C3CCCC3)nc3c2CCNCC3)C1 (stereo not shown) | 5.806 | -1.428
O=C1CN([C@@H]2CC[C@@H](NS(=O)(=O)c3ccccc3F)[C@H]2O)CCN1 | 3.955 | 0.4416
CCS(=O)(=O)N1CCOC2(CCCN(c3ccccn3)C2)C1 (stereo not shown) | 6.863 | -5.64
Nc1nc2c(c(N3CCCC3)n1)CCN(Cc1ccccn1)CC2 | 10.61 | -5.338
Cc1cccn2cc(CC(=O)N(CCN(C)C)CC3CCCO3)nc12 (stereo not shown) | 1.657 | -11.83
Cc1cc2c(=O)n3c(nc2s1)CCN(C(=O)c1nn(C)cc1Cl)CC3 | 3.802 | -3.482
O=C(Nc1cnc2n1CCCC2)c1cccc(-n2cnnc2)c1 | 1.98 | -0.2708
COCCN1CCCn2cnc(CN(C)C(C)C)c2C1 | 1.149 | 8.896
C[C@H]1C[C@@H]2CCN(C(=O)c3ccncn3)C[C@H]2O1 | 1.604 | 1.381
Cc1c(NC(=O)c2cccc(Br)c2)c(C(=O)N(C)C)nn1C | 3.478 | -3.968
CCN(CC)C(C)CNC(=O)c1cccnc1Oc1cccnc1 (stereo not shown) | 5.155 | 5.693

The first 6 entries again:

| Compound | TcHisRS | ClpP1P2 |
|---|---|---|
| `Cc1cc(CN(C)C2CCCN(c3cccnn3)C2)no1` (stereo not shown) | 15.52 | -8.588 |
| `COCCN1CCC(NC(=O)C/C=C/c2ccc(C(C)C)cc2)CC1` | 8.642 | -2.504 |
| `COCc1cc(N(C)CCc2c(C)n[nH]c2C)ncn1` | 5.263 | 2.296 |
| `CC(C)c1nccn1Cc1cc(C(=O)NCC(C)n2ccnc2)n[nH]1` (stereo not shown) | 2.41 | -5.945 |
| `COCc1cc(CC2(NC3CCN(C)CC3)COC2)no1` | -0.4975 | 7.141 |
| `O=C(C(CNCc1ccccn1)c1ccccc1)N1CCOCC1` (stereo not shown) | 2.242 | -7.899 |